# Measurements from patent US20240254182A1 (PROVINCIAL HEALTH SERVICES AUTHORITY, published 2024).
# The chains behind the UniProt entries cited, without tags or fusion partners. Where a name states a change or a piece, a line headed by the entry shows the natural chain unless it says otherwise.
# UniProt Q99062: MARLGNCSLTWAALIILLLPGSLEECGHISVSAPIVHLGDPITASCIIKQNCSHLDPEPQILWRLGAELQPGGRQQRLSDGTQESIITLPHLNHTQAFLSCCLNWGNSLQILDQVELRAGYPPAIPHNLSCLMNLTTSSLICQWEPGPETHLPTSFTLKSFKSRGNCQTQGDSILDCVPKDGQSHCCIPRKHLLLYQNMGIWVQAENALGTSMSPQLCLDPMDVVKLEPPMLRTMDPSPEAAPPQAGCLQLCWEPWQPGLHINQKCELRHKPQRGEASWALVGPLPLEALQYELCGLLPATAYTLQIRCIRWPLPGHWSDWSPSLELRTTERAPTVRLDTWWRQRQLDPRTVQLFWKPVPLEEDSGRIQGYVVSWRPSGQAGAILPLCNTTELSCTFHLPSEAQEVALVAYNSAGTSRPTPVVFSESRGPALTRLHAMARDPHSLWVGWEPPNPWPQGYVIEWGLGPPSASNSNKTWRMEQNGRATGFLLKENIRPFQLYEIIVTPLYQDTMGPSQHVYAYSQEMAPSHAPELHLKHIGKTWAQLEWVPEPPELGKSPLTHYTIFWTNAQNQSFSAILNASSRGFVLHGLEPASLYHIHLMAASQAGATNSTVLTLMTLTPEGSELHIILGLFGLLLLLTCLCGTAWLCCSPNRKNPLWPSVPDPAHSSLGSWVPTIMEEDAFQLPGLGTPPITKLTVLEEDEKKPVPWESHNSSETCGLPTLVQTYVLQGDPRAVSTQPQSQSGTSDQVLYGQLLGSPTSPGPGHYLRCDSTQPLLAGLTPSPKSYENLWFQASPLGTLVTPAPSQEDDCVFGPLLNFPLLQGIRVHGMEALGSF
# Biological target: T1, WT G-CSFR(CRH) with N-terminal hexahistidine tag (human, UniProt Q99062 120-331)
# T1 construct: CRH domain only, no Ig domain; also called G-CSFR(CRH)WT; WT receptor
# T1 chain: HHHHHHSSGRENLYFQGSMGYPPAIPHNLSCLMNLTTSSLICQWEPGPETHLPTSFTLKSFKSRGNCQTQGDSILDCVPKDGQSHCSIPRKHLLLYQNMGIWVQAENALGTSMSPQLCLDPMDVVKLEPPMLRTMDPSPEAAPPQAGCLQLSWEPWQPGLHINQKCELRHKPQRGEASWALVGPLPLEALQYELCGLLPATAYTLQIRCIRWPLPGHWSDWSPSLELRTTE
# Test: variant G-CSF co-expressed with WT G-CSFR(CRH) in insect cells, pulldown via the Twin Strep tag on G-CSF, reducing SDS-PAGE
# Experimental: The P2 viral stocks were tested for protein expression in small-scale. P2 virus was used to co-infect G-CSFE mutants with their corresponding G-CSFRE mutant in Trichoplusia ni (Tni) cells in 12-well plates. Separate co-infections for each design mutant were performed using the P2 stocks of G-CSFWT and GCSFR(CRH)WT, as well as for G-CSFE mutants alone. For each reaction, 2 mL of healthy log-phase Tni at 2×10⁶ cells ml⁻¹ was inoculated with 20 μl P2 virus. Plates were incubated at 27° C. for approximately 70 h with shaking at 135 rpm. […] Briefly, to each 1.8 mL reaction supernatant 0.2 mL 10× HEPES Buffered Saline (HBS: 20 mM HEPES pH8, 150 mM NaCl) was added to 1×, 20 μl bed volume (b.v) of purification beads added and reactions incubated for 30 minutes with end-over-end mixing at 24° C. An additional 20 μl b.v of purification beads was added followed by a second 30 minute incubation. Beads were pelleted by centrifugation at 2200 rpm for 3 minutes, supernatant was removed and the beads washed with 1× HBS buffer.
binder,measurement,value
site II design 34 G-CSFE with C-terminal Twin Strep tag (ligand) TPLGPASSLPQSFLLKCLEQVRKIQGDGAALQEKLCATYKLCHPEELVLLGHSLGIPWAPLSSCPSQALQLAGCLSQLHSGLFLYQGLLQALEGISPELGPTLDTLQKDVARFATTIWQQMRRLGMAPALQPTQGAMPAFASAFQRRAGGVLVASHLQSFLEVSYRVLRHLAQAAAENLYFQGSAWSHPQFEKGGGSGGGSGGSAWSHPQFEK,binding result,no binding
